Results: patent US20130267584A1

Amino acid sequences for entries named in this document (tags omitted). A change or cut given only in a name is not applied to a line headed by its entry. Residues count along the entry.
UniProt Q07954, residues 805-1184: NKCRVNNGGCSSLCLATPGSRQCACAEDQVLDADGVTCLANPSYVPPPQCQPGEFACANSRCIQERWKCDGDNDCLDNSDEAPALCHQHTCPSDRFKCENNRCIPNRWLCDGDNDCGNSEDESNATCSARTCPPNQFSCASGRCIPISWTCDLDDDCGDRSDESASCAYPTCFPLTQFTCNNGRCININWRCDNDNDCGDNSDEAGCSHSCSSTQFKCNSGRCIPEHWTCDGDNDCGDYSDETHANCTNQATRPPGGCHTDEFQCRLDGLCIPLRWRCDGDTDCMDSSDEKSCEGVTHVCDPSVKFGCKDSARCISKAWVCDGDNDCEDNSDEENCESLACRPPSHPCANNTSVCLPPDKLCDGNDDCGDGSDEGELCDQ
UniProt P10646: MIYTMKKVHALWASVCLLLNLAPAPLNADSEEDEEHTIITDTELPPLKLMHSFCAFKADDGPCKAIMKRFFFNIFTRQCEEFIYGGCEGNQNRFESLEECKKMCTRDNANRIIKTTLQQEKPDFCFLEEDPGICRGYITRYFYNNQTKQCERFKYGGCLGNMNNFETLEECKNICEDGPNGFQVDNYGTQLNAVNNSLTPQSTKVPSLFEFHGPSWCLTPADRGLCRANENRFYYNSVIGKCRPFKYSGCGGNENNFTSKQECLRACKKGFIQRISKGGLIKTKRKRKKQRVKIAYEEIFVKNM

Molecular target: biotinylated recombinant human LRP-1 Cluster II Fc Chimera protein (R&D Systems) (human) (UniProt Q07954)
Test: SPR (BIAcore T200, 37 C), biotinylated LRP-1 Cluster II Fc on NeutrAvidin C1 chip, fl-TFPI with 1 uM BAX 499

Substance: fl-TFPI complexed to BAX 499 (from UniProt P10646)
- binding: binds

Results are given in words; binding and its absence hold for the method and conditions named. A result given as binding can be weak or reduced; the word gives no strength.
